Reference: the supplement of paper PMC12067093, “Discovery and optimisation of a covalent ligand for TRIM25 and its application to targeted protein ubiquitination” (Chemical Science, 2025)
The other results are listed elsewhere or left out.

Amino acid sequences for entries named in this document (tags omitted). A change or cut given only in a name is not applied to a line headed by its entry.
UniProt Q9NQ86: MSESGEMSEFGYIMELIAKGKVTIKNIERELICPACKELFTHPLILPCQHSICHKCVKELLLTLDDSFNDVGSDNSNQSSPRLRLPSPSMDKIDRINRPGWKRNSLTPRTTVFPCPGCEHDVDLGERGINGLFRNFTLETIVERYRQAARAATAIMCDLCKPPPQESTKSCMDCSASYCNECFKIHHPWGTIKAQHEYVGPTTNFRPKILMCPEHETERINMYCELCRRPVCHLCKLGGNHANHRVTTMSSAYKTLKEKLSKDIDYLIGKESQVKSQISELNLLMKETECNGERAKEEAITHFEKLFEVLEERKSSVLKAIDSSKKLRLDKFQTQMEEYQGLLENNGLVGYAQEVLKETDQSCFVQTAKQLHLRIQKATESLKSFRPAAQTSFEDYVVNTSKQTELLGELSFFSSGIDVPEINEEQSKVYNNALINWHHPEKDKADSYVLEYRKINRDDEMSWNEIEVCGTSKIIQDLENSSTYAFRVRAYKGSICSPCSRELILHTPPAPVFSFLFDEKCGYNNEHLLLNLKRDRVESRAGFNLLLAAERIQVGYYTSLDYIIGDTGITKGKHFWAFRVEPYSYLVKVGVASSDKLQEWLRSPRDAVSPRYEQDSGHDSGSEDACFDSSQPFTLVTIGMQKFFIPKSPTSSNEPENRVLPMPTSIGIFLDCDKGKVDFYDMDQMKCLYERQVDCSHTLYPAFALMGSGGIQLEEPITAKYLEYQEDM
UniProt O14545: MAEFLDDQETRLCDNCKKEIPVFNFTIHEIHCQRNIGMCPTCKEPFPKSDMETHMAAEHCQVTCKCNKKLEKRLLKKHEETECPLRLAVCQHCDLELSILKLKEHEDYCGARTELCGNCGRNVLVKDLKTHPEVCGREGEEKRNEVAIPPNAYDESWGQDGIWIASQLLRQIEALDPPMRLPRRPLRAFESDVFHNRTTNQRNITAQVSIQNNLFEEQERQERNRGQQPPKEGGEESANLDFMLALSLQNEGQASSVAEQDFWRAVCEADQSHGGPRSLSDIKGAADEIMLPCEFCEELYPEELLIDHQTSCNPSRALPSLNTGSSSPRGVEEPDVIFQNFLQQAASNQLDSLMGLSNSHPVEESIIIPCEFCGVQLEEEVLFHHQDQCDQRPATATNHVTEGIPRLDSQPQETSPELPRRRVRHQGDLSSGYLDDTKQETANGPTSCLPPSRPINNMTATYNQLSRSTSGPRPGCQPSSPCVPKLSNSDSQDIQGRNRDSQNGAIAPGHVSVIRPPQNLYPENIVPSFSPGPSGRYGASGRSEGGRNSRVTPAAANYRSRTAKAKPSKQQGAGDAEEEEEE
UniProt P19474, whole entry, looked up: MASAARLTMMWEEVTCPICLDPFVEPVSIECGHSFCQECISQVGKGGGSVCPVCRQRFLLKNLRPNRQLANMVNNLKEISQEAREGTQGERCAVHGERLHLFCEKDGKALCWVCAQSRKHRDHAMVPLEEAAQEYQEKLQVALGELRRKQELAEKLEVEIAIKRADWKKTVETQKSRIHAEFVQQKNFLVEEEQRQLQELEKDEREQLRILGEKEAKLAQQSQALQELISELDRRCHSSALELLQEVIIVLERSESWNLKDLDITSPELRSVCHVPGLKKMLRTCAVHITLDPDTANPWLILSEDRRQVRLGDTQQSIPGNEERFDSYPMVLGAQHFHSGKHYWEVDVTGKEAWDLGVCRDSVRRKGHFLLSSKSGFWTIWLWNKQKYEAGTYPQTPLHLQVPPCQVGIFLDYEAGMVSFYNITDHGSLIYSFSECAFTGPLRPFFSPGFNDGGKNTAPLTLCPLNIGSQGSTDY
UniProt O15164: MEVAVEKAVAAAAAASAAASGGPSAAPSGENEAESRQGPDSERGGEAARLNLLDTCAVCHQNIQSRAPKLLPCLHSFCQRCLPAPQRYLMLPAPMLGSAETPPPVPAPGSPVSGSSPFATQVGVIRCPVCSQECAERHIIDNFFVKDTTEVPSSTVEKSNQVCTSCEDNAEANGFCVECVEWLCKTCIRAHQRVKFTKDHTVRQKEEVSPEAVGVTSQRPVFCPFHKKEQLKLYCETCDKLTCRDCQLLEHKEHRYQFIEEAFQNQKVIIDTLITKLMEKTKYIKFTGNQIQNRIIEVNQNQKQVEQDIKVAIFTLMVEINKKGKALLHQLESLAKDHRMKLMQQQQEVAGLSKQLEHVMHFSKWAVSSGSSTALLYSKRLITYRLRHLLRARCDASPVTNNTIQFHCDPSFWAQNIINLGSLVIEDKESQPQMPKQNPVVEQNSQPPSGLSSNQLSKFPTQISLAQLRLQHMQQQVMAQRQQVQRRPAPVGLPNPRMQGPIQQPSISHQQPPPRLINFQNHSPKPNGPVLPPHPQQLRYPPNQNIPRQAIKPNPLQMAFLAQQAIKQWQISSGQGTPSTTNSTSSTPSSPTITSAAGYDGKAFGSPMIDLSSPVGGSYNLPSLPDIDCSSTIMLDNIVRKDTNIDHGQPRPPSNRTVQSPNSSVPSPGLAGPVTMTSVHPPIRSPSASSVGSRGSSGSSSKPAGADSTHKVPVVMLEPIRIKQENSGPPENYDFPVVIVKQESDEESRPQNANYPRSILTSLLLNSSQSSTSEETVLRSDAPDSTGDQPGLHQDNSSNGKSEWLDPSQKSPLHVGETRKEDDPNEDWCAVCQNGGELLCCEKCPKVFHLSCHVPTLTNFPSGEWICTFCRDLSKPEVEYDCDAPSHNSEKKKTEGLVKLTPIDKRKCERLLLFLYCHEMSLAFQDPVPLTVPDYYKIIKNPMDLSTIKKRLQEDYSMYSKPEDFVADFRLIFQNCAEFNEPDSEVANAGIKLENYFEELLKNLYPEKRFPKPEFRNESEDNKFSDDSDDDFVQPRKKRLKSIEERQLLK
UniProt Q9H2D6: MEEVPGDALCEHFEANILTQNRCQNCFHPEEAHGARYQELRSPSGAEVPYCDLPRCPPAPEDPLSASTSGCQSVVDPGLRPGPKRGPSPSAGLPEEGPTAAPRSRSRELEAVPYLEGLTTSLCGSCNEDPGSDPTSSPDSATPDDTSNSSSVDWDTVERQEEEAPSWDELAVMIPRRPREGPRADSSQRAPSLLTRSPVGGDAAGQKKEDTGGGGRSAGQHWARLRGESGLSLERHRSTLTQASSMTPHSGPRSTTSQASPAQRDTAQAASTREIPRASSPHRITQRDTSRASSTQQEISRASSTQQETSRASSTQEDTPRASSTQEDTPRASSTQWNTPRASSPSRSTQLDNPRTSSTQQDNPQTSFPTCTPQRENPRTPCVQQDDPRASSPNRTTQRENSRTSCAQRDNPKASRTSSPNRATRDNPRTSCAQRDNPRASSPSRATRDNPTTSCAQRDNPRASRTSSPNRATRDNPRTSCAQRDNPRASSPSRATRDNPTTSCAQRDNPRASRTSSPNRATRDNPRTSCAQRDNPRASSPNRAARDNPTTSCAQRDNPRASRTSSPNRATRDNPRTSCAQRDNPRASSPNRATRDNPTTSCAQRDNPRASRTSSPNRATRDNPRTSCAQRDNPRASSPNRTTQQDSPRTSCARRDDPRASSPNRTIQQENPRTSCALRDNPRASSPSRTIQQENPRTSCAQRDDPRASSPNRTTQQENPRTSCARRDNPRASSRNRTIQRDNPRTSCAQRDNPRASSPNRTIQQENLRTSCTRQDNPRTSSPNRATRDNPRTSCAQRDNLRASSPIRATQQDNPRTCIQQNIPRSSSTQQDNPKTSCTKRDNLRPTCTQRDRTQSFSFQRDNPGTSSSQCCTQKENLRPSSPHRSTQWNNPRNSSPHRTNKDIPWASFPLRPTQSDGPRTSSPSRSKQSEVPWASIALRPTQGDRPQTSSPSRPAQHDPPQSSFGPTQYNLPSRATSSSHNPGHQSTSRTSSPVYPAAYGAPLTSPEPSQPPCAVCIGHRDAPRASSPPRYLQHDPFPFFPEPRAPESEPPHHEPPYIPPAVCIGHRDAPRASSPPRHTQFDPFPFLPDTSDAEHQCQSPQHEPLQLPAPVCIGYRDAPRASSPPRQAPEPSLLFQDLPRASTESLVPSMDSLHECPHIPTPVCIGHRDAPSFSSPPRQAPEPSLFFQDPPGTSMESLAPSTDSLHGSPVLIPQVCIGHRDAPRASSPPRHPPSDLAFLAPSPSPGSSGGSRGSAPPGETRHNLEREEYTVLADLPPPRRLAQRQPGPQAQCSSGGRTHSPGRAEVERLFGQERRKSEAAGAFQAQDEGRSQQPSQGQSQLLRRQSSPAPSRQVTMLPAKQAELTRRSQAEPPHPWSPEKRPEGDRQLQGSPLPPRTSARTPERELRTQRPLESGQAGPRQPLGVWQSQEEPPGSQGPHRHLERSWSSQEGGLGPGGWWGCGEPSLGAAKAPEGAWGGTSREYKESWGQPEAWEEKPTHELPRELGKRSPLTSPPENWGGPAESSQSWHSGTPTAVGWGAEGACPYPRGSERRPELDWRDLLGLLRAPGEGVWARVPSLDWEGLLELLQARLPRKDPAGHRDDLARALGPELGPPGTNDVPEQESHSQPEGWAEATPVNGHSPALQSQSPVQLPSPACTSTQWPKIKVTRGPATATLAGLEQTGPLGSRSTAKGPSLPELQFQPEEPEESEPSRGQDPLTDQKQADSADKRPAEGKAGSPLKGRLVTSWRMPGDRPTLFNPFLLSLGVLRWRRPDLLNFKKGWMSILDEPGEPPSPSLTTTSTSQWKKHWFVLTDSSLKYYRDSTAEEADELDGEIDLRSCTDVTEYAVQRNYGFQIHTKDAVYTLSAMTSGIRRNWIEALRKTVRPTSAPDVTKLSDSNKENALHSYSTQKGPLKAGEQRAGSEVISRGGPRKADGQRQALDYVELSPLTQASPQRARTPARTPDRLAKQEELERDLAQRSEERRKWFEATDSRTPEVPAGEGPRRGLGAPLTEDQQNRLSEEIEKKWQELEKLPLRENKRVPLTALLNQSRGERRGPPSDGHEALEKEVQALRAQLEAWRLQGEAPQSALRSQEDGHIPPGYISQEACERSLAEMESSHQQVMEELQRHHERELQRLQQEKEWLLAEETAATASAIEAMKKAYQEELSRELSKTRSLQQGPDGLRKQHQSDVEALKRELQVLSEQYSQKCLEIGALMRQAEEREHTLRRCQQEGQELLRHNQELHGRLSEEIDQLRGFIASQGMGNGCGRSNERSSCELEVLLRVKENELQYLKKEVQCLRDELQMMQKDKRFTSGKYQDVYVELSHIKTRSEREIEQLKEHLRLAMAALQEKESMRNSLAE
UniProt Q12931: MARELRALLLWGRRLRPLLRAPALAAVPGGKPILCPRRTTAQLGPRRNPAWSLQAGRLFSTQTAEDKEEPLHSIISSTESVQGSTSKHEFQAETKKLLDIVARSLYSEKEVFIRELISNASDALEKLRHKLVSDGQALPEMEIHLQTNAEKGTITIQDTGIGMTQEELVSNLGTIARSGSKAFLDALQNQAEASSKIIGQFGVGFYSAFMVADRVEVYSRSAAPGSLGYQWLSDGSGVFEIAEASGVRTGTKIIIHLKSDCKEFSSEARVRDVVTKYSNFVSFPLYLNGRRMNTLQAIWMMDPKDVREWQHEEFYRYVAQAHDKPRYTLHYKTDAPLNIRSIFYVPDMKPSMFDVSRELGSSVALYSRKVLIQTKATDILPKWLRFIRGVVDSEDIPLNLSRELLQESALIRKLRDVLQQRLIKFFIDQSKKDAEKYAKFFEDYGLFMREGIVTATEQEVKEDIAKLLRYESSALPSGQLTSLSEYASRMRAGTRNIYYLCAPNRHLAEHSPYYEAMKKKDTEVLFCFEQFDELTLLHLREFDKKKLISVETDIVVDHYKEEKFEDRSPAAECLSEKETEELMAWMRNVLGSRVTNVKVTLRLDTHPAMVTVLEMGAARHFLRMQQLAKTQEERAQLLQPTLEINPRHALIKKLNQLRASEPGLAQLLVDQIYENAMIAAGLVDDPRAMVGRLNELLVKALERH
UniProt Q9Y228: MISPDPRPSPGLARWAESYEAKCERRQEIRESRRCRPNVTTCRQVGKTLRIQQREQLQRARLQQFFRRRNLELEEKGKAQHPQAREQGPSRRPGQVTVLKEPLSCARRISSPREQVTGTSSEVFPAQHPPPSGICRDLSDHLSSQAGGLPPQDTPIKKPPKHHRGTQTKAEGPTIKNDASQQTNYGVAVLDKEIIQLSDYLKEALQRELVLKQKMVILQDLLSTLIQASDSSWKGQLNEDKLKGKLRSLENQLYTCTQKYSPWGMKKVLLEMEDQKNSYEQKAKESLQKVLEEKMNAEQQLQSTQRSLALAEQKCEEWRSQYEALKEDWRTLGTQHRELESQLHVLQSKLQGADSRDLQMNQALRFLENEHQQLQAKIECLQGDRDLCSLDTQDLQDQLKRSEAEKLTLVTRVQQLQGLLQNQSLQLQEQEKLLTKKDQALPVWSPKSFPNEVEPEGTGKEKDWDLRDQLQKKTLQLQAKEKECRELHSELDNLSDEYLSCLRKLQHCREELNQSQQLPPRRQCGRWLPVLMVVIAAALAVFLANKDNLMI

Compound: Cc1cc(ccc1-c1ccccc1)C(=O)N1CCCN(CC1)C(=O)CCl [compound 10]
Test: probe-labelled cysteine peptide fold change vs DMSO (competition) (log2 fold change); higher = less target engagement (more negative = stronger competition)
Settings: THP-1, incubation time: 4 h
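Note: competitive profiling in live THP-1 cells: cysteine peptides tagged with an iodoacetamide desthiobiotin (IA-DTB) probe, intensity after compound treatment relative to DMSO-treated cells.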

Target	probe-labelled cysteine peptide fold change (10 µM)	probe-labelled cysteine peptide fold change (50 µM)
TRERF1_Q96PN7_517_LTCSICLK (UniProt Q96PN7)	0.0707	0.00825
TRIM36_Q9NQ86_499_GSICSPCSR (UniProt Q9NQ86)	-0.137	-0.203
TRIM33_Q9UPN9_276_PVFCPVHK (UniProt Q9UPN9)	-0.0409	0.108
TRAPPC4_Q9Y296_195_CELFDQNLK (UniProt Q9Y296)	0.0982	-0.0304
TRIM33_Q9UPN9_447_CDPVPAANGAIR (UniProt Q9UPN9)	-0.0626	-0.323
TRANK1_O15050_1947_DFQASCLLGAAR (UniProt O15050)	0.0281	0.213
TRAFD1_O14545_32_EIPVFNFTIHEIHCQR (UniProt O14545)	0.282	0.345
TRIM21_P19474_359_EAWDLGVCR (UniProt P19474)	0.0897	0.107
TRIM25_Q14258_107_ASAPSPNAQVACDHCLK (UniProt Q14258)	0.147	-0.0942
TRIM24_O15164_73_LLPCLHSFCQR (UniProt O15164)	-0.0887	-0.068
TRMT11_Q7Z4G4_161_KPQHVFSVLEDYGLDPNCIPENPHNIYFGR (UniProt Q7Z4G4)	-0.0115	-0.0241
TRIM25_Q14258_127_TCLVCMASFCQEHLQPHFDSPAFQDHPLQPPVR (UniProt Q14258)	-0.278	-0.34
TRAPPC10_P48553_162_CVVLSDPLK (UniProt P48553)	-0.195	-0.191
TRIM25_Q14258_176+179_LREFFCPEHSECICHICLVEHK (UniProt Q14258)	-0.0726	-0.283
TRMT1L_Q7Z2T5_419_RHYGCNIVR (UniProt Q7Z2T5)	0.0193	0.0906
TRIM25_Q14258_179_LREFFCPEHSECICHICLVEHK (UniProt Q14258)	0.0299	0.0604
TRIM24_O15164_223_EEVSPEAVGVTSQRPVFCPFHK (UniProt O15164)	0.000787	0.25
TRMT10A_Q8TBZ6_107_LIIDCSFDHLMVLK (UniProt Q8TBZ6)	0.118	-0.028
TRIP12_Q14669_1411_DCVGGK (UniProt Q14669)	-0.186	-0.298
TRMT1_Q9NXH9_150_TAAVGEICEEGLHVLEGLAASGLR (UniProt Q9NXH9)	-0.0654	-0.0072
TPP2_P29144_614_EGLHYTEVCGYDIASPNAGPLFR (UniProt P29144)	-0.168	-0.0644

Target	probe-labelled cysteine peptide fold change (10 µM)	probe-labelled cysteine peptide fold change (50 µM)
TRIP4_Q15650_171+173_LAVLLPGRHPCDCLGQK (UniProt Q15650)	-0.173	-0.178
TRAPPC11_Q7Z392_282_LCFQHNTPLDAIAQFR (UniProt Q7Z392)	-0.0525	0.0288
TPX2_Q9ULW0_594_NVTQIEPFCLETDRR (UniProt Q9ULW0)	0.612	0.614
TRIP6_Q15654_307+310_VFHVGCFVCSTCR (UniProt Q15654)	-0.027	-0.174
TRANK1_O15050_1158_NHVLCQEVQR (UniProt O15050)	-0.266	-0.0122
TRAPPC9_Q96Q05_317_NCLSPEDIIDK (UniProt Q96Q05)	0.12	0.213
TRERF1_Q96PN7_1065_QKPGGTQSGYCSVK (UniProt Q96PN7)	-0.0802	-0.55
TRAFD1_O14545_64_SDMETHMAAEHCQVTCK (UniProt O14545)	-0.0569	-0.29
TRIOBP_Q9H2D6_1842_SCTDVTEYAVQR (UniProt Q9H2D6)	-0.0575	0.473
TRAPPC11_Q7Z392_771_VPNISVHLLHEPPALTNEMYCLVVTVQSHEK (UniProt Q7Z392)	0.225	0.0741
TRIM26_Q12899_36_DPVTIDCGHVFCR (UniProt Q12899)	0.118	-0.0244
TPP2_P29144_1218_NCIQLMK (UniProt P29144)	0.162	0.0877
TRAP1_Q12931_573_SPAAECLSEK (UniProt Q12931)	0.0623	0.307
TRA2B_P62995_118+119_ANPDPNCCLGVFGLSLYTTER (UniProt P62995)	-0.198	-0.0884
TRAPPC8_Q9Y2L5_505_CVLLSAELLK (UniProt Q9Y2L5)	0.11	0.225
TRAF3IP3_Q9Y228_501_ELHSELDNLSDEYLSCLR (UniProt Q9Y228)	0.399	0.31
TRIOBP_Q9H2D6_2280_SSCELEVLLR (UniProt Q9H2D6)	-0.23	0.0743
TRIM36_Q9NQ86_48+53_ELFTHPLILPCQHSICHK (UniProt Q9NQ86)	0.0203	0.00239
TRIM32_Q13049_134_EADHQPPGHCTLPVK (UniProt Q13049)	-0.119	-0.211
TRMT1_Q9NXH9_86_DLTCAVITEFAR (UniProt Q9NXH9)	-0.00606	-0.169
TRAPPC9_Q96Q05_1035_EAVAACQVGDPVR (UniProt Q96Q05)	-0.101	0.181

Target	probe-labelled cysteine peptide fold change (10 µM)	probe-labelled cysteine peptide fold change (50 µM)
TRMT13_Q9NUP7_414_ITDDGADCLPGLLSVEEK (UniProt Q9NUP7)	-0.296	0.118
TRIP6_Q15654_362+365+368_AYHPGCFTCVVCHR (UniProt Q15654)	-0.0574	-0.156
TRIM28_Q13263_124_QQCFSK (UniProt Q13263)	0.161	-0.242
TRAPPC11_Q7Z392_117_QSECATR (UniProt Q7Z392)	-0.115	0.0706
TRIM25_Q14258_168+174_EFFCPEHSECICHICLVEHK (UniProt Q14258)	0.141	-0.0787
TRIM36_Q9NQ86_521_CGYNNEHLLLNLKR (UniProt Q9NQ86)	-0.144	-0.402
TRMT2A_Q8IZ69_463_VIGVELCPEAVEDAR (UniProt Q8IZ69)	-0.181	-1.16
TRIP12_Q14669_502_SVVPALITLLQMEHNFDIMNHACR (UniProt Q14669)	0.108	0.00473
TRMT1_Q9NXH9_621_GDQCCYSHSPPTPR (UniProt Q9NXH9)	-0.0265	-0.0659
TRIM36_Q9NQ86_212_ILMCPEHETER (UniProt Q9NQ86)	0.117	0.11
TRMT1L_Q7Z2T5_320_VTINDLNENSVTLIQENCHLNK (UniProt Q7Z2T5)	-0.042	-1.02
TRIM11_Q96F44_330_FDPGPCVLGQER (UniProt Q96F44)	-0.365	-0.206
TRAF2_Q12933_124_EYESCHEGR (UniProt Q12933)	-0.114	-0.518
TRIM24_O15164_127+134_CPVCSQECAER (UniProt O15164)	0.118	-0.0216
TRIM33_Q9UPN9_145+150_LLPCLHSFCLR (UniProt Q9UPN9)	-0.167	-0.482
TRAF3IP3_Q9Y228_508_KLQHCR (UniProt Q9Y228)	0.235	0.0867
TPRKB_Q9Y3C4_167_LSSQEESIGTLLDAIICR (UniProt Q9Y3C4)	0.0132	-0.163
TRAP1_Q12931_527_KDTEVLFCFEQFDELTLLHLR (UniProt Q12931)	0.143	0.314
TRMT2A_Q8IZ69_191_QLECEQVLQK (UniProt Q8IZ69)	-0.0728	-0.0245
TRIM36_Q9NQ86_53_ELFTHPLILPCQHSICHK (UniProt Q9NQ86)	0.112	0.018
TRIM5_Q9C035_95_VDHCAR (UniProt Q9C035)	-0.107	-0.113

Target	probe-labelled cysteine peptide fold change (10 µM)	probe-labelled cysteine peptide fold change (50 µM)
TRIM28_Q13263_651+666_VCQKPGDLVMCNQCEFCFHLDCHLPALQDVPGEEWSCSLCHVLPDLK (UniProt Q13263)	0.0941	0.167
TRIM25_Q14258_475_VALSECYTVASVAEMPQNYRPHPQR (UniProt Q14258)	-0.698	-0.374
TRAPPC12_Q8WVT3_160_EVPGSEAARPEQEPPVAEPVPVCTIFSQR (UniProt Q8WVT3)	0.0745	0.0995
TRIT1_Q9H3H1_397_SYHLCDLCDR (UniProt Q9H3H1)	0.171	-0.26
TRIP4_Q15650_187_LINNCLICGR (UniProt Q15650)	-0.00768	-0.204
TRIP10_Q15642_99_VCLELTK (UniProt Q15642)	-0.0206	0.0263
TRAF2_Q12933_303_VAMTAEACSR (UniProt Q12933)	0.0164	0.0612
TRAFD1_O14545_109_EHEDYCGAR (UniProt O14545)	-0.0369	0.1
TRAF3_Q13114_61_CHLVLCSPK (UniProt Q13114)	0.0758	-0.448
TRMT10C_Q7L0Y3_246_NVDPFHIYFCNLK (UniProt Q7L0Y3)	0.0643	0.0549
TRIM25_Q14258_119_TCLVCMASFCQEHLQPHFDSPAFQDHPLQPPVR (UniProt Q14258)	0.371	0.313
TRIM25_Q14258_110_ASAPSPNAQVACDHCLK (UniProt Q14258)	-0.0981	-0.283
TRIM21_P19474_92_CAVHGER (UniProt P19474)	-0.0683	-0.103
TPP2_P29144_678+680_RHFIEVPEGATWAEVTVCSCSSEVSAK (UniProt P29144)	0.371	-0.315
TPP2_P29144_209_ACIDSNEDGDLSK (UniProt P29144)	0.142	0.076
TRMT10C_Q7L0Y3_246_RNVDPFHIYFCNLK (UniProt Q7L0Y3)	0.156	0.0708
TRIR_Q9BQ61_165_AHQCGDDDK (UniProt Q9BQ61)	-0.061	-0.491
TRAPPC11_Q7Z392_302_KHIDLCK (UniProt Q7Z392)	-0.0237	-0.11
TPRA1_Q86W33_30_CLLLLYEDIGTSR (UniProt Q86W33)	-0.475	-0.297
TRIM33_Q9UPN9_786_QEPGTEDEICSFSGGVK (UniProt Q9UPN9)	-0.145	0.28
